No constants are given. Whether binding was seen depends on the method and setting. In cells and extracts the contact can be indirect. Some results given as binding are weak or reduced against the parent protein; the word gives no strength.
T1: interferon-induced transmembrane protein 2 (IFITM2), endogenous (mouse (endogenous in naive CD4+ T cells)) (UniProt Q99J93)
T1 sequence: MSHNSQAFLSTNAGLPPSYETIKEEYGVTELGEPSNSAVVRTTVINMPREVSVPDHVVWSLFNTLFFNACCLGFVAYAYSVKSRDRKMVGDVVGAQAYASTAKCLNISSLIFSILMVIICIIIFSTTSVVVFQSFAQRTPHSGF

Sequences of proteins named here, by UniProt entry; tags and fusion partners are left off.
UniProt P17182: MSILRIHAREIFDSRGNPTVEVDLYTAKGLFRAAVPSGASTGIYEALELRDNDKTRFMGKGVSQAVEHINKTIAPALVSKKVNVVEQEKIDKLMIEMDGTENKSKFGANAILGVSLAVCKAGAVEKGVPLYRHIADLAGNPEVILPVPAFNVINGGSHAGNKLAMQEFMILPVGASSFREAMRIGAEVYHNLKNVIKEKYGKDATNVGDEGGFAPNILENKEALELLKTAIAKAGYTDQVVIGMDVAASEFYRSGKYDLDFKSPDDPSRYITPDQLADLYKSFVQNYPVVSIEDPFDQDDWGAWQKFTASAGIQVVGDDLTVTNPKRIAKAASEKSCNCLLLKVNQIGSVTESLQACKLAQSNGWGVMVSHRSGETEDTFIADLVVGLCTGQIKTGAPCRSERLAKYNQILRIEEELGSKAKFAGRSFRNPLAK
UniProt Q99JI6: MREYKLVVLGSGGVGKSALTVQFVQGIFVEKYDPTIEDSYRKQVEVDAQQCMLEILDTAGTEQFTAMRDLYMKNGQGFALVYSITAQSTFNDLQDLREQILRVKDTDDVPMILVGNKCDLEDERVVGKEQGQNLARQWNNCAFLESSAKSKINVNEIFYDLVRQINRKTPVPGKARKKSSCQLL


Legend:
[1] = target: T1, interferon-induced transmembrane protein 2 (IFITM2), endogenous (mouse (endogenous in naive CD4+ T cells)); assay: co-IP; naive CD4+ T cells transfected with control siRNA or Ifitm2 siRNA, with or without NDMC (500 ng/mL), under Treg differentiation conditions; IP of IFITM2, blot for RAP1B
[2] = target: enolase 1 (ENO1), endogenous, on the surface of CD4+ T cells (mouse (endogenous in naive CD4+ T cells)) (UniProt P17182); assay: co-IP; IP of IFITM2 and ENO1 (Supplemental Figure 8G); cells and conditions not shown

binding [1] | binding [2] | Molecule
binds |  | RAS-associated protein 1B (RAP1B), endogenous (from UniProt Q99JI6 1-184)
 | binds | interferon-induced transmembrane protein 2 (IFITM2), endogenous (protein, UniProt Q99J93 1-144) MSHNSQAFLSTNAGLPPSYETIKEEYGVTELGEPSNSAVVRTTVINMPREVSVPDHVVWSLFNTLFFNACCLGFVAYAYSVKSRDRKMVGDVVGAQAYASTAKCLNISSLIFSILMVIICIIIFSTTSVVVFQSFAQRTPHSGF

— article PMC12578386
